{
  "source": "PubChem BioAssay AID977622",
  "about": "(Broad Institute, 2014)",
  "note": "Fewer than 10 of roughly 1,900 compounds were called active. Inconclusive means that the source gave no clear call. Such entries were picked first, then a sample of the others.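 The calls were made as follows: active = Green signal of the normal strain falls at least twice as much as red signal of the resistant mutant, with overall culture growth loss under a set limit; inconclusive = no clear call, values can overlap the other calls; inactive = the rest.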",
  "data": [
    {"test": "wild-type E. coli growth inhibition versus h38 humanized strain – h38 mutant RFP, wild-type GFP, cherry-pick, dose response (AID 977622)", "conditions": "E. coli WT ribosome GFP fluorescence, mixed culture, 24 h; at 50 µM (top of the series)", "values": [
      {"smiles": "O=S(=O)(c1cnc(Cl)c(Cl)c1)N1CCCc2ccccc21", "activity change, negative = inhibition": "inconclusive: -10.2"},
      {"smiles": "N#Cc1ccccc1CSc1nc2ccc(NC(=O)c3ccccc3C(=O)O)cc2s1", "activity change, negative = inhibition": "inconclusive: -16.1"},
      {"smiles": "CC1(CCC(=O)N2CCCC(N3CCN(c4ccc(F)cc4)CC3)C2)CC1", "note": "(stereo not drawn)", "activity change, negative = inhibition": "inactive: -1.28"},
      {"smiles": "Cc1[nH]nc2c1C(c1ccc(F)cc1)N(Cc1ccccc1)C2=O", "note": "(stereo not drawn)", "activity change, negative = inhibition": "inconclusive: -32.3"},
      {"smiles": "COc1ccc(Nc2oc(-c3ccco3)nc2S(=O)(=O)c2ccc(F)cc2)cc1", "activity change, negative = inhibition": "inconclusive: -31.5"},
      {"smiles": "C=CCn1c(-c2sc(-c3ccccc3)nc2C)n[nH]c1=S", "activity change, negative = inhibition": "inconclusive: -28.5"},
      {"smiles": "CC(=O)Oc1ccc(N(C(C)=O)S(=O)(=O)c2ccc(Cl)cc2)c2ccccc12", "activity change, negative = inhibition": "inconclusive: -7.89"},
      {"smiles": "CC(C)NC(=O)N(C)C[C@H]1OCCCC[C@@H](C)Oc2ccc(NC(=O)Nc3cccc4ccccc34)cc2C(=O)N([C@@H](C)CO)C[C@H]1C", "activity change, negative = inhibition": "inconclusive: 5.45"},
      {"smiles": "C[C@H](CO)N1C[C@H](C)[C@H](CN(C)C)OCCCC[C@H](C)Oc2ccc(NC(=O)Nc3cccc4ccccc34)cc2C1=O", "activity change, negative = inhibition": "inconclusive: 9.57"},
      {"smiles": "CCn1c(SCC(=O)Nc2ccc(OC)cc2)nc2nc3c(cc2c1=O)CCCC3", "activity change, negative = inhibition": "inconclusive: -5.59"},
      {"smiles": "C[C@@H](NC(=O)C[C@@H]1CC[C@@H]2[C@H](COC[C@H](O)CN2C(=O)Nc2cccc(F)c2)O1)c1ccccc1", "activity change, negative = inhibition": "inconclusive: -0.574"},
      {"smiles": "Cc1ccc(S(=O)(=O)Nc2ccccc2CNc2ccccn2)cc1", "activity change, negative = inhibition": "inconclusive: -19.7"},
      {"smiles": "CC1(C)c2ccccc2C(=O)c2ccccc21", "activity change, negative = inhibition": "inconclusive: -25.4"},
      {"smiles": "C[C@H]1CCCCO[C@H](CN(C)C(=O)CCCN(C)C)[C@@H](C)CN([C@@H](C)CO)C(=O)c2cc(NC(=O)Nc3cccc4ccccc34)ccc2O1", "activity change, negative = inhibition": "inconclusive: 7.43"},
      {"smiles": "CN(Cc1ccccc1NS(=O)(=O)c1ccc(Cl)cc1)C1CCCCC1", "activity change, negative = inhibition": "inactive: 0.238"},
      {"smiles": "COc1ccc(-n2ccnc2SCC(=O)NCc2ccccc2)c(OC)c1", "activity change, negative = inhibition": "inconclusive: 24.1"},
      {"smiles": "CC(C)Oc1nc(-c2ccccc2Cl)nc2ccccc12", "activity change, negative = inhibition": "inconclusive: 5.36"},
      {"smiles": "CCn1nc(C)cc1C(=O)N1CCCC(C(=O)c2ccc3ccccc3c2)C1", "note": "(stereo not drawn)", "activity change, negative = inhibition": "inactive: 6.42"},
      {"smiles": "COc1ccc(C2CC(=O)Oc3cc(C)cc(C)c32)cc1", "note": "(stereo not drawn)", "activity change, negative = inhibition": "inactive: 3.33"},
      {"smiles": "CN(C)CCCN(C(=O)c1ccc(S(=O)(=O)N(C)Cc2ccccc2)cc1)c1nc2c(F)cccc2s1", "activity change, negative = inhibition": "inconclusive: -33"},
      {"smiles": "CCOc1ccccc1NS(=O)(=O)c1ccc(Br)s1", "activity change, negative = inhibition": "inconclusive: -21"},
      {"smiles": "O=C(CCc1ccccc1)Nc1sc2c(c1C(=O)O)CCCC2", "activity change, negative = inhibition": "inconclusive: -17.7"},
      {"smiles": "Cc1ccc(-c2n[nH]c(S(C)(=O)=O)c2C#N)cc1", "activity change, negative = inhibition": "inconclusive: -13.6"},
      {"smiles": "CCN(CC)C(=O)c1ccc(COc2ccccc2Cl)o1", "activity change, negative = inhibition": "inconclusive: -8.55"},
      {"smiles": "CC(CNc1ccc(Cl)cc1)(CNc1ccc(Cl)cc1)[N+](=O)[O-]", "activity change, negative = inhibition": "inconclusive: -19"},
      {"smiles": "CC(C)Oc1ccc(C(=O)Nc2cccc3cccnc23)cc1", "activity change, negative = inhibition": "inconclusive: -0.168"},
      {"smiles": "CCc1c(N=O)c(-c2ccccc2)n(O)[n+]1[O-]", "activity change, negative = inhibition": "inconclusive: -4.67"},
      {"smiles": "Cc1nnn(C23C[C@@H]4C[C@@H](CC(C(=O)N5CCN(c6ccccc6)CC5)(C4)C2)C3)n1", "activity change, negative = inhibition": "inconclusive: -15.1"},
      {"smiles": "Cc1cc(C(=O)c2ccc3ccccc3c2)c(C)o1", "activity change, negative = inhibition": "inconclusive: -11.6"},
      {"smiles": "CCOc1ccc(S(=O)(=O)N(C)c2ccc(OCC(=O)NCc3cccnc3)cc2)cc1", "activity change, negative = inhibition": "inconclusive: -6.28"},
      {"smiles": "COc1ccc(CC(=O)Oc2ccc(C)cc2C)cc1", "activity change, negative = inhibition": "inconclusive: -15.2"},
      {"smiles": "COc1cccc(C(=O)c2c[nH]c(C(=O)NCc3cccnc3)c2)c1", "activity change, negative = inhibition": "inactive: 5.03"},
      {"smiles": "Cn1nc(C(=O)Nc2cccc(S(=O)(=O)N3CCCCC3)c2)c2ccccc2c1=O", "activity change, negative = inhibition": "inactive: -2.91"},
      {"smiles": "C=CCN(c1ccccc1)S(=O)(=O)c1cccc2cccnc12", "activity change, negative = inhibition": "inconclusive: -3.74"},
      {"smiles": "Cc1cc(C(=O)Nc2cccc3c2O[C@H](CN(C)S(=O)(=O)c2ccc(Cl)cc2)[C@H](C)CN([C@@H](C)CO)C3=O)n(C)n1", "activity change, negative = inhibition": "inconclusive: -12"},
      {"smiles": "Cc1ccc(CSCC(=O)N(C)CC(=O)Nc2ccccc2Cl)cc1", "activity change, negative = inhibition": "inconclusive: -27"},
      {"smiles": "Cc1ccc2nc(N(CCN(C)C)C(=O)C3CCN(S(=O)(=O)c4cccs4)CC3)sc2c1", "activity change, negative = inhibition": "inactive: -7.71"},
      {"smiles": "O=C(O)c1cc(-c2ccc(-c3ccc(F)cc3)o2)nc2ccccc12", "activity change, negative = inhibition": "inconclusive: -16.5"},
      {"smiles": "c1ccc(CN2CCN(C3CCCSc4ccccc43)CC2)cc1", "note": "(stereo not drawn)", "activity change, negative = inhibition": "inconclusive: -21"},
      {"smiles": "COc1cccc(NC(=O)COC(=O)Cc2ccc(Cl)cc2)c1", "activity change, negative = inhibition": "inconclusive: -8.23"},
      {"smiles": "Cc1noc(C)c1NC(=O)Nc1ccc2c(c1)C(=O)N([C@H](C)CO)C[C@@H](C)[C@H](CN(C)C(=O)Nc1ccc3c(c1)OCO3)OCCCC[C@@H](C)O2", "activity change, negative = inhibition": "inconclusive: 1.42"},
      {"smiles": "Cc1ccsc1C(=O)C1CCCN(Cc2cc(F)ccc2-n2cccn2)C1", "note": "(stereo not drawn)", "activity change, negative = inhibition": "inconclusive: -13.4"},
      {"smiles": "Cc1cc(C)cc(NS(=O)(=O)c2cc(C(=O)NCc3ccccn3)ccc2Cl)c1", "activity change, negative = inhibition": "inactive: -4.83"},
      {"smiles": "COc1ccc(-c2noc(=O)n2Cc2ccccc2Cl)cc1", "activity change, negative = inhibition": "inconclusive: -0.085"},
      {"smiles": "CSc1ccc(CN(C)C(=O)C(c2ccccc2)c2ccccc2)cc1", "activity change, negative = inhibition": "inactive: -7.81"},
      {"smiles": "C[C@@H]1CN([C@@H](C)CO)S(=O)(=O)c2ccc(Br)cc2O[C@H]1CN(C)C(=O)c1ccccc1", "activity change, negative = inhibition": "inactive: 4.92"},
      {"smiles": "COc1ccccc1C1CCN(Cc2cccc([N+](=O)[O-])c2)CC1", "activity change, negative = inhibition": "inconclusive: -1.79"},
      {"smiles": "O=C(CN1CCCC1)Nc1ccccc1Sc1ccc(Cl)cc1", "activity change, negative = inhibition": "inconclusive: -19"},
      {"smiles": "Cc1cccc(C(=O)NCC(=O)NCCSc2ccc(Br)cc2)c1", "activity change, negative = inhibition": "inconclusive: -7.96"},
      {"smiles": "CCC[N+]1(CC#CC(O)(c2ccccc2)C2CCCCC2)CCCCC1", "note": "(stereo not drawn)", "activity change, negative = inhibition": "inconclusive: 1.23"},
      {"smiles": "C[n+]1ccccc1/C=C/c1cc(Br)ccc1O", "activity change, negative = inhibition": "inconclusive: -18.8"},
      {"smiles": "C=CCSc1cc(C)nc2c(-c3ccccc3)c(C)nn12", "activity change, negative = inhibition": "inactive: -3.15"},
      {"smiles": "CS(=O)(=O)Nc1ccccc1C(=O)NCCSc1ccccc1", "activity change, negative = inhibition": "inactive: 2.54"}
    ]}
  ]
}
